Assay results published in the supplement of paper PMC3682954.
Structures can show the parent of a compound that is named as a salt. ± gives the standard deviation of the averaged measurements. Some of the results follow. Repeats are few or missing, and single values can be far off.

Test system: RAW 264.7
Assay: HMGB1-induced TNF-alpha production relative to HMGB1-stimulated control; higher = more TNF-alpha secretion (less inhibition)
Conditions: stimulus: HMGB1 5 ug/ml, 18 h
[1] = compound concentration: 1 ug/ml

SMILES | HMGB1-induced TNF-alpha production (compound concentration: 3 uM) [%] | HMGB1-induced TNF-alpha production [1] [%]
COc1ccc2c(c[n+](C)c3c4cc5c(cc4ccc23)OCO5)c1OC [Chelerythrine chloride] | 3.08 | 
c1ccc2c(c1)[I+]c1ccccc1-2 [Diphenyleneiodonium chloride] | 77.4 | 
CC(N)Cc1cccc(C(F)(F)F)c1 (single isomer, unassigned; (+)) [(+)-Norfenfluramine hydrochloride] | 104 | 
O=[N+]([O-])c1cc([As](=O)(O)O)ccc1O | 77.2 | 
O=[N+]([O-])c1cc([As](=O)(O)O)ccc1O [Roxarsone] | 95 | 
CCN1C[C@]2(COC)[C@H](O)C[C@H](OC)[C@@]34[C@@H]5C[C@@]6(O)[C@H](OC(=O)c7ccccc7)[C@@H]5[C@@](OC(C)=O)([C@@H]([C@H](OC)[C@H]23)[C@@H]14)[C@@H](O)[C@@H]6OC [Aconitine] | 88.1 | 
CCN1C[C@]2(COC)[C@H](O)C[C@H](OC)[C@@]34[C@@H]5C[C@@]6(O)[C@H](OC(=O)c7ccccc7)[C@@H]5[C@@](OC(C)=O)([C@@H]([C@H](OC)[C@H]23)[C@@H]14)[C@@H](O)[C@@H]6OC | 86.1 | 
CCn1cc(C(=O)O)c(=O)c2cc3c(cc21)OCO3 | 79.2 | 
CCn1cc(C(=O)O)c(=O)c2cc3c(cc21)OCO3 [Oxolinic acid] | 93.8 ± 13 | 
C[C@]12CC[C@H](O)C[C@@H]1CC[C@@H]1[C@@H]2CC[C@]2(C)C(=O)CC[C@@H]12 [Epiandrosterone] | 77 | 70.7
C[N+]1(C)[C@@H]2C[C@@H](OC(=O)[C@H](CO)c3ccccc3)C[C@H]1[C@@H]1O[C@@H]12 | 85.5 | 
C[N+]1(C)[C@@H]2C[C@@H](OC(=O)[C@H](CO)c3ccccc3)C[C@H]1[C@@H]1O[C@@H]12 [(-)-Scopolamine methyl bromide] | 87.9 | 
CN(C(=O)Cc1ccc(Cl)c(Cl)c1)C(CN1CCCC1)c1cccc(OCC(=O)O)c1 (stereo not drawn) [ICI 204,448 hydrochloride] | 94.9 | 
NCCc1ccc(O)cc1 [4-Hydroxyphenethylamine hydrochloride] | 111 | 
CN(C)C(=O)Oc1cc(OC(=O)N(C)C)cc(C(O)CNC(C)(C)C)c1 (stereo not drawn) [Bambuterol] | 85.3 | 
CN(C)C(=O)Oc1cc(OC(=O)N(C)C)cc(C(O)CNC(C)(C)C)c1 (stereo not drawn) [Bambuterol hydrochloride] | 65.7 | 
CN(C)C(=O)Oc1cc(OC(=O)N(C)C)cc(C(O)CNC(C)(C)C)c1 (stereo not drawn) | 83.1 | 
NC(=O)COc1c(F)cc(SCCNS(=O)(=O)c2ccccc2)cc1F | 88.6 | 
CCCN1CCC[C@H](c2cccc(O)c2)C1 [R(+)-3PPP hydrochloride] | 112 | 
CC[C@@]1([C@@H]2O[C@@H]([C@H]3O[C@@](O)(CO)[C@H](C)C[C@@H]3C)C[C@@H]2C)CC[C@H]([C@]2(C)CC[C@]3(C[C@H](O)[C@@H](C)[C@@H]([C@@H](C)[C@@H](OC)[C@H](C)C(=O)O)O3)O2)O1 [Monensin sodium salt] | 108 | 
CCN(C)C(=O)Oc1cccc([C@H](C)N(C)C)c1 [Rivastigmine] | 88.5 ± 12 | 
C[C@H](Cc1ccc2c(c1)OC(C(=O)O)(C(=O)O)O2)NC[C@H](O)c1cccc(Cl)c1 | 84.6 | 
CCC1(c2ccc(N)cc2)CCC(=O)NC1=O (stereo not drawn) | 84.9 ± 7.6 | 
CCC1(c2ccc(N)cc2)CCC(=O)NC1=O (stereo not drawn) [Glutethimide, para-amino] | 83.7 | 

SMILES | HMGB1-induced TNF-alpha production (compound concentration: 3 uM) [%] | HMGB1-induced TNF-alpha production [1] [%]
C[N+]1(C)CCN(c2ccccc2)CC1 [1,1-Dimethyl-4-phenyl-piperazinium iodide] | 103 | 
C[N+]1(C)CCN(c2ccccc2)CC1 | 117 | 
COc1ccc2c3c([nH]c2c1)C(C)=NCC3 [Harmaline hydrochloride dihydrate] | 112 | 65.3
CN1[C@@H]2CC[C@H]1C[C@@H](OC1c3ccccc3CCc3ccccc31)C2 [Deptropine citrate] | 97.9 | 
C[C@@H](N)Cc1cnc[nH]1 [Histamine, R(-)-alpha-methyl-, dihydrochloride] | 85.6 | 
Clc1cc(I)cc(Cl)c1NC1=NCCN1 [p-Iodoclonidine hydrochloride] | 91.9 | 
C[C@@H]1O[C@@H](O[C@H]2C[C@@H](O)[C@]3(CO)[C@H]4[C@H](O)C[C@]5(C)[C@@H](C6=CC(=O)OC6)CC[C@]5(O)[C@@H]4CC[C@]3(O)C2)[C@H](O)[C@H](O)[C@H]1O [(-)-Ouabain hydrate] |  | 53.9
C[C@@H]1O[C@@H](O[C@H]2C[C@@H](O)[C@]3(CO)[C@H]4[C@H](O)C[C@]5(C)[C@@H](C6=CC(=O)OC6)CC[C@]5(O)[C@@H]4CC[C@]3(O)C2)[C@H](O)[C@H](O)[C@H]1O [Ouabain] | 92.6 ± 6.3 | 
C[C@@H]1O[C@@H](O[C@H]2C[C@@H](O)[C@]3(CO)[C@H]4[C@H](O)C[C@]5(C)[C@@H](C6=CC(=O)OC6)CC[C@]5(O)[C@@H]4CC[C@]3(O)C2)[C@H](O)[C@H](O)[C@H]1O | 92.22 ± 0.29 | 
NCC(O)c1ccc(O)cc1 (racemic) [(+,-)-Octopamine hydrochloride] | 101 | 
NCC(O)c1ccc(O)cc1 (racemic) [(±)-Octopamine hydrochloride] | 104 | 
[N-]=[N+]=CC(=O)OC[C@H](N)C(=O)O | 79.1 | 
C[N+]1([O-])[C@@H]2CC[C@H]1C[C@@H](OC(=O)C(CO)c1ccccc1)C2 (stereo partly drawn) | 74.6 | 
NCCCP(=O)(O)O [3-Aminopropylphosphonic acid] | 111 | 
CNCCc1c[nH]c2ccc(O)cc12 [N-omega-Methyl-5-hydroxytryptamine oxalate salt] | 109 | 
CNC1=Nc2ccc(Cl)cc2C(c2ccccc2)=[N+]([O-])C1 | 92.1 ± 9.2 | 
CCC1(CC)C(=O)C=CNC1=O [Pyrithyldione] | 132 | 
CCC1(CC)C(=O)C=CNC1=O | 89.1 | 
COc1cc2c(c(OC)c1OC)-c1ccc(=O)c(O)cc1[C@@H](NC(C)=O)CC2 [Colchiceine] |  | 75.5
COc1ccc(Cc2nccc3cc(OC)c(OC)cc23)cc1OC [Papaverine hydrochloride] | 107 ± 10 | 
COc1ccc(Cc2nccc3cc(OC)c(OC)cc23)cc1OC | 93.2 | 
NNC(=O)c1ccc(O)cc1 [4-Hydroxybenzhydrazide] | 84.6 | 
C=C(C)[C@H]1Cc2c(ccc3c2O[C@@H]2COc4cc(OC)c(OC)cc4[C@@H]2C3=O)O1 [Rotenone] | 102 | 107
C=C(C)[C@H]1Cc2c(ccc3c2O[C@@H]2COc4cc(OC)c(OC)cc4[C@@H]2C3=O)O1 | 82.8 | 

SMILES | HMGB1-induced TNF-alpha production (compound concentration: 3 uM) [%] | HMGB1-induced TNF-alpha production [1] [%]
COC(=O)C1=CCCN(C)C1 | 89.1 | 
COC(=O)C1=CCCN(C)C1 [Arecoline hydrobromide] | 97.2 ± 15 | 
N[C@@H](CCl)C(=O)O [beta-Chloro-L-alanine hydrochloride] | 75.5 | 
CC(C)(C)NCC(O)c1cc(Cl)c(N)c(Cl)c1 (stereo not drawn) [Clenbuterol hydrochloride] | 32.2 | 
CC(C)(C)NCC(O)c1cc(Cl)c(N)c(Cl)c1 (stereo not drawn) [Clenbuterol] | 52.2 | 
CC(C)(C)NCC(O)c1cc(Cl)c(N)c(Cl)c1 (stereo not drawn) | 34.7 | 
COc1cc2c(cc1OC)[C@@]13CCN4CC5=CCO[C@H]6CC(=O)N2[C@H]1[C@H]6[C@H]5C[C@H]43 | 77.4 ± 8.7 | 
COc1cc2c(cc1OC)[C@@]13CCN4CC5=CCO[C@H]6CC(=O)N2[C@H]1[C@H]6[C@H]5C[C@H]43 [Brucine] | 98.4 | 
COc1cc2c(cc1OC)[C@H](C)NCC2 [Salsolidine] |  | 62.3
O=C(NC(=O)c1c(F)cccc1F)Nc1cc(Cl)c(OC(F)(F)C(F)C(F)(F)F)cc1Cl (stereo not drawn) | 67.6 | 
NNC(N)=O [Semicarbazide hydrochloride] | 117 | 
O=C[C@H](Cl)[C@@H](O)[C@H](O)[C@H](O)CO [2-Chloro-2-deoxy-D-glucose] | 78.4 | 
CCC(N)C(O)c1ccc(O)c(O)c1 (stereo not drawn) | 22 | 
CCCN(CCC)C1CCc2ccc(O)cc2C1 (stereo not drawn) [R-(+)-7-Hydroxy-DPAT hydrobromide] | 86.1 | 
c1ccc(C2(c3ccccc3)CC2C2=NCCN2)cc1 (stereo not drawn) [Cibenzoline succinate] | 98.7 | 
C/C=C1\C[C@@H](C)[C@](O)(CO)C(=O)OCC2=CCN3CC[C@@H](OC1=O)[C@@H]23 [Retrorsine] |  | 67.1
C[C@H]1CCC[C@H](O)CCCCCc2cc(O)cc(O)c2C(=O)O1 | 95.7 | 
COc1ccc(CCN2CCC(Nc3nc4ccccc4n3Cc3ccc(F)cc3)CC2)cc1 | 80.5 | 
COc1ccc(CCN2CCC(Nc3nc4ccccc4n3Cc3ccc(F)cc3)CC2)cc1 [Astemizole] | 98.4 ± 16 | 
CC(=O)O[C@H]1C[C@H](O[C@H]2[C@@H](O)C[C@H](O[C@H]3[C@@H](O)C[C@H](O[C@H]4CC[C@@]5(C)[C@H](CC[C@@H]6[C@@H]5C[C@@H](O)[C@]5(C)[C@@H](C7=CC(=O)OC7)CC[C@]65O)C4)O[C@@H]3C)O[C@@H]2C)O[C@H](C)[C@H]1O[C@@H]1O[C@H](CO)[C@@H](O)[C@H](O)[C@H]1O [lanatoside C] |  | 70
CC(=O)O[C@H]1C[C@H](O[C@H]2[C@@H](O)C[C@H](O[C@H]3[C@@H](O)C[C@H](O[C@H]4CC[C@@]5(C)[C@H](CC[C@@H]6[C@@H]5C[C@@H](O)[C@]5(C)[C@@H](C7=CC(=O)OC7)CC[C@]65O)C4)O[C@@H]3C)O[C@@H]2C)O[C@H](C)[C@H]1O[C@@H]1O[C@H](CO)[C@@H](O)[C@H](O)[C@H]1O [Lanatoside C] | 67.2 | 
CC(=O)O[C@H]1C[C@H](O[C@H]2[C@@H](O)C[C@H](O[C@H]3[C@@H](O)C[C@H](O[C@H]4CC[C@@]5(C)[C@H](CC[C@@H]6[C@@H]5C[C@@H](O)[C@]5(C)[C@@H](C7=CC(=O)OC7)CC[C@]65O)C4)O[C@@H]3C)O[C@@H]2C)O[C@H](C)[C@H]1O[C@@H]1O[C@H](CO)[C@@H](O)[C@H](O)[C@H]1O | 88.4 | 
